The text below walks through data of publication PMC4346799.

By UniProt entry, the sequences of proteins in these tests, tags left out.
UniProt Q14643: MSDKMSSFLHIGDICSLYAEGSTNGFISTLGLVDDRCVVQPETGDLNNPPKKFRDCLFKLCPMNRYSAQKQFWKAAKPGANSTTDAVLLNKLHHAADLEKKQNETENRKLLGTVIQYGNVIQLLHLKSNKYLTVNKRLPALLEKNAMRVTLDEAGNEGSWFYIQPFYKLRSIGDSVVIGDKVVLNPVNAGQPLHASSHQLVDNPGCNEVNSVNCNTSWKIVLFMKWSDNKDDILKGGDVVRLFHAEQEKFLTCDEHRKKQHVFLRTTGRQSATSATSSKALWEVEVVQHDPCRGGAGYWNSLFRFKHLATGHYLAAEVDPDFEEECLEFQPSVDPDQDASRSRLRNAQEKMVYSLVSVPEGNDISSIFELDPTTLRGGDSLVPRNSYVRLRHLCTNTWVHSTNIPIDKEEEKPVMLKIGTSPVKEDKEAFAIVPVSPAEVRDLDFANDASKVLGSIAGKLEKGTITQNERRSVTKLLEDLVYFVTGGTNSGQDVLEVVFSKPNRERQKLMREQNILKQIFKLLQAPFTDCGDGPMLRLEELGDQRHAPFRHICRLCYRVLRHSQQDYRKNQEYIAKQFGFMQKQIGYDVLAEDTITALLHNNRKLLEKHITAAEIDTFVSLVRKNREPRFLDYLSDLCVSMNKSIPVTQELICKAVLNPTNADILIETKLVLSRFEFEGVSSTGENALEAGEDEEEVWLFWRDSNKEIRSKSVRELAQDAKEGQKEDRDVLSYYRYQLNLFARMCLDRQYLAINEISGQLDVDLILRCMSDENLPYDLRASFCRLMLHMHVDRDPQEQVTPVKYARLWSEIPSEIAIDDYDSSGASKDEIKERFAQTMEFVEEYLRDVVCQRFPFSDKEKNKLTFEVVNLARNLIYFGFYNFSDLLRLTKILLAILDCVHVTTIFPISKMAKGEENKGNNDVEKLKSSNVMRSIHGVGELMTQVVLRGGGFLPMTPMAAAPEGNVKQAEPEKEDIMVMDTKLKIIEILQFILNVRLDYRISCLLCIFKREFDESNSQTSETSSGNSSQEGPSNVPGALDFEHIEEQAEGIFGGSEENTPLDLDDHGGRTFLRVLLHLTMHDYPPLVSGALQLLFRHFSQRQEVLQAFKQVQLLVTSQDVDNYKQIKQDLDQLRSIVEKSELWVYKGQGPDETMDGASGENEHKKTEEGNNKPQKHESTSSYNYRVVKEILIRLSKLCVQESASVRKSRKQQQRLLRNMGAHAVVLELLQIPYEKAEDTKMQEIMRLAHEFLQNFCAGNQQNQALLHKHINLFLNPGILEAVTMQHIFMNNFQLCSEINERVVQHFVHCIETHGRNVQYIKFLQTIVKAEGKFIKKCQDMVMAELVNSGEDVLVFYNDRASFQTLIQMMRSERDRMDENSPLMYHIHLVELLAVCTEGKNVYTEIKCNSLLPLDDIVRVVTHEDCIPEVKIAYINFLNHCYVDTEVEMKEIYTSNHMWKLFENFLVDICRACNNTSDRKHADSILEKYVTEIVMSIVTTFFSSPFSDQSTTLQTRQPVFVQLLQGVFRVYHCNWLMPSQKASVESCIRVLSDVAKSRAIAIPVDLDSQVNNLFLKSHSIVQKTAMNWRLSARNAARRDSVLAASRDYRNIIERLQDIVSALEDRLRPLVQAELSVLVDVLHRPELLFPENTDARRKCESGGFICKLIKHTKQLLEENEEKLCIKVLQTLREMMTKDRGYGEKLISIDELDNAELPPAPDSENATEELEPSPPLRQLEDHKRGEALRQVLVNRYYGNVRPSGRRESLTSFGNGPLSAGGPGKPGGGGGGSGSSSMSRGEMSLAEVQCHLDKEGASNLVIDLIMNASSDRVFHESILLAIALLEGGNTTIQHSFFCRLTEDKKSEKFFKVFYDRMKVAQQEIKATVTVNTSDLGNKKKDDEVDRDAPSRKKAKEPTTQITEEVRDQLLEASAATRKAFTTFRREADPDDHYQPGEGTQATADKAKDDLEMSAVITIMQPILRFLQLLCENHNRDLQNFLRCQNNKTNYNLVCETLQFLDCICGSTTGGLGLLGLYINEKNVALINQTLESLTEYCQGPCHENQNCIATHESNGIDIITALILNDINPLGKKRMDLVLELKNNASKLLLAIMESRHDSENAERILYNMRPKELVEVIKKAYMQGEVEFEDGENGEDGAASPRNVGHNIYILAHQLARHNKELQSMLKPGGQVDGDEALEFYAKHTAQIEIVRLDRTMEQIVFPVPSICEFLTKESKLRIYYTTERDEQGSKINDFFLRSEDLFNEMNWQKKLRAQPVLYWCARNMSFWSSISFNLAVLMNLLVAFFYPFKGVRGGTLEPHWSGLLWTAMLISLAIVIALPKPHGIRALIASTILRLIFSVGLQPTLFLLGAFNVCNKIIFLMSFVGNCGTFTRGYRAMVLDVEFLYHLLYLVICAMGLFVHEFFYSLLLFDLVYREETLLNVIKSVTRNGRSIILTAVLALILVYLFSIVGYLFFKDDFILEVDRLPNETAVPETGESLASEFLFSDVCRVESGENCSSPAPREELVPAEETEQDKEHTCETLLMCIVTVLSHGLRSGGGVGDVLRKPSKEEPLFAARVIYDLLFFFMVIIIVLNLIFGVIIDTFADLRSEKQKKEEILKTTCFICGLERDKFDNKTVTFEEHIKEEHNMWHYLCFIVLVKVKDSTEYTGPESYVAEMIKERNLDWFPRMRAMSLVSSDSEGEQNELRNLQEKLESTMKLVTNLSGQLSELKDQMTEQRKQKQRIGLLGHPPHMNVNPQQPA
UniProt Q9NV70: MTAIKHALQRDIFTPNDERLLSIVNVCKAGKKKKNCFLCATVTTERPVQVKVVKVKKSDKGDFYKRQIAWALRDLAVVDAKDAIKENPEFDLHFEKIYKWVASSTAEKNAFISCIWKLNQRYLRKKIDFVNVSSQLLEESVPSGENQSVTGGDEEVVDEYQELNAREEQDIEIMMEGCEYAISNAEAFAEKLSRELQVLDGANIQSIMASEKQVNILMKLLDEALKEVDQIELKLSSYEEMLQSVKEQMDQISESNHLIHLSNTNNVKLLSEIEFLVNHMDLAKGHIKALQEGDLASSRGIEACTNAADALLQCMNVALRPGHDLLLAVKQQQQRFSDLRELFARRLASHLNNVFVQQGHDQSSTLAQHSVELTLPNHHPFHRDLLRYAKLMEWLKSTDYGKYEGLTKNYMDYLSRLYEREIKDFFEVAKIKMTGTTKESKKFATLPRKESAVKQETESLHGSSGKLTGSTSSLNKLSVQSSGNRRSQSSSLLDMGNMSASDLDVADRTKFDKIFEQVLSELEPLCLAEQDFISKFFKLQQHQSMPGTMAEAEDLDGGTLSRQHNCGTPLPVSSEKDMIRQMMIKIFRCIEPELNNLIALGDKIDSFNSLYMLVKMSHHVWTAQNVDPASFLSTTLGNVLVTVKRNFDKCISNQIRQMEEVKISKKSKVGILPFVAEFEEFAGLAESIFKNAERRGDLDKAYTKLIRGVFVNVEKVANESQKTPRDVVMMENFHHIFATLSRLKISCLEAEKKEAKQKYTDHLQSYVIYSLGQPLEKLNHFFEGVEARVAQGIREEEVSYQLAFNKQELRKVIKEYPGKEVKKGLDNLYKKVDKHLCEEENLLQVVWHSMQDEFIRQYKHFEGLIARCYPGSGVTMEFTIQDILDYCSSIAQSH

These are yes or no findings as the source states them, for the method shown. In cells and extracts the contact can be indirect. Some binding calls cover weakened binding; strength is not graded here. Where a sequence is shown, tags or fusion partners need not be part of it.

In test [1] the target is inositol-1,4,5-trisphosphate receptor 1 (IP3R1), endogenous (human (endogenous in HEK293)) (UniProt Q14643). As to the kind of experiment: co-IP; HEK293 lysate; endogenous IP3R1 precipitated with goat anti-IP3R1 antibodies, in Nonidet P-40 buffer with 0.5% Triton X-100 added; also done after EXOC1 knockdown (interaction decreased).
The target in test [2] is GFP-EXOC1 (UniProt Q9NV70). As to the kind of experiment: co-IP; transfected HEK293 cells, lysed by sonication in Nonidet P-40 lysis buffer (50 mM Tris pH 8.0, 150 mM NaCl, 1% NP-40, 5 mM EDTA); antibody 10-15 h at 4°C, protein-A agarose.
The target of test [3] is GFP-EXOC1 (UniProt Q9NV70). Put plainly: co-IP; subcellular fractionation of transfected HEK293 cells followed by co-immunoprecipitation; 400 μg of ER and 1 mg of cytosolic protein preparations.

B1: DISC1 fragment, residues 1-350 (domain or fragment, UniProt Q9NRI5 1-350)
chain: MPGGGPQGAPAAAGGGGVSHRAGSRDCLPPAACFRRRRLARRPGYMRSSTGPGIGFLSPAVGTLFRFPGGVSGEESHHSESRARQCGLDSRGLLVRSPVSKSAAAPTVTSVRGTSAHFGIQLRGGTRLPDRLSWPCGPGSAGWQQEFAAMDSSETLDASWEAACSDGARRVRAAGSLPSAELSSNSCSPGCGPEVPPTPPGSHSAFTSSFSFIRLSLGSAGERGEAEGCPPSREAESHCQSPQEMGAKAASLDGPHEDPRCLSRPFSLLATRVSADLAQAARNSSRPERDMHSLPDMDPGSSSSLDPSLAGCGGDGSSGSGDAHSWDTLLRKWEPVLRDCLLRNRRQMEV
On to B1, for which, in test [1], the binding result was “binds”.

B2: Flag-DISC1 (Disrupted-in-schizophrenia-1) (protein, UniProt Q9NRI5 1-854)
chain: MPGGGPQGAPAAAGGGGVSHRAGSRDCLPPAACFRRRRLARRPGYMRSSTGPGIGFLSPAVGTLFRFPGGVSGEESHHSESRARQCGLDSRGLLVRSPVSKSAAAPTVTSVRGTSAHFGIQLRGGTRLPDRLSWPCGPGSAGWQQEFAAMDSSETLDASWEAACSDGARRVRAAGSLPSAELSSNSCSPGCGPEVPPTPPGSHSAFTSSFSFIRLSLGSAGERGEAEGCPPSREAESHCQSPQEMGAKAASLDGPHEDPRCLSRPFSLLATRVSADLAQAARNSSRPERDMHSLPDMDPGSSSSLDPSLAGCGGDGSSGSGDAHSWDTLLRKWEPVLRDCLLRNRRQMEVISLRLKLQKLQEDAVENDDYDKAETLQQRLEDLEQEKISLHFQLPSRQPALSSFLGHLAAQVQAALRRGATQQASGDDTHTPLRMEPRLLEPTAQDSLHVSITRRDWLLQEKQQLQKEIEALQARMFVLEAKDQQLRREIEEQEQQLQWQGCDLTPLVGQLSLGQLQEVSKALQDTLASAGQIPFHAEPPETIRSLQERIKSLNLSLKEITTKVCMSEKFCSTLRKKVNDIETQLPALLEAKMHAISGNHFWTAKDLTEEIRSLTSEREGLEGLLSKLLVLSSRNVKKLGSVKEDYNRLRREVEHQETAYETSVKENTMKYMETLKNKLCSCKCPLLGKVWEADLEACRLLIQSLQLQEARGSLSVEDERQMDDLEGAAPPIPPRLHSEDKRKTPLKVLEEWKTHLIPSLHCAGGEQKEESYILSAELGEKCEDIGKKLLYLEDQLHTAIHSHDEDLIQSLRRELQMVKETLQAMILQLQPAKEAGEREAAASCMTAGVHEAQA
B2: the binding entry (with GFP-EXOC1 [2]; in test [1]; in the test with GFP-EXOC1 [3]) was “binds” each time.
